Data: paper PMC11685698
No constants are given. Whether binding was seen depends on the method and setting. In cells and extracts the contact can be indirect. Binding calls can cover weak binding; strength is not graded here. One block for each molecule: values may come before it.

Key:
SEMA7A = target: T1, SEMA7A (UniProt O75326); assay: co-IP; lysate of HEC-1-A cells transfected with a SEMA7A overexpression plasmid; 200 µL protein sample with primary antibody or normal rabbit IgG for 12 h at 4 °C, Protein A/G agarose, beads washed three times with cell-lysis buffer, analysed by WB; done in duplicate; both directions (anti-SEMA7A IP and anti-p85 IP)
T1 sequence: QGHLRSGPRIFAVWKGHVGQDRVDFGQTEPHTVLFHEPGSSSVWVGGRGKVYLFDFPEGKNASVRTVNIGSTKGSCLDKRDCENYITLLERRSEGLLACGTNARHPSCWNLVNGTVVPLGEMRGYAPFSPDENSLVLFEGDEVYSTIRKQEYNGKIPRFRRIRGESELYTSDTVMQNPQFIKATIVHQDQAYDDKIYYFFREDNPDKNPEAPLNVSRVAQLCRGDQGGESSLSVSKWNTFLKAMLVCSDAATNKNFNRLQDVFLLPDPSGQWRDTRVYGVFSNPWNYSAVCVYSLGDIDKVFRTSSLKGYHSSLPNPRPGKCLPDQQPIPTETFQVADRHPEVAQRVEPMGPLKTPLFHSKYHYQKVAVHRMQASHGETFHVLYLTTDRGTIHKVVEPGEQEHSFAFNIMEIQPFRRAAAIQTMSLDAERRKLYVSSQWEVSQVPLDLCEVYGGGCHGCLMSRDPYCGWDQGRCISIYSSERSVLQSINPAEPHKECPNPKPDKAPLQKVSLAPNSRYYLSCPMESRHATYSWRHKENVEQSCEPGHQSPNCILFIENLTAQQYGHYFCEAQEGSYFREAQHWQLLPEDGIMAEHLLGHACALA

[1] = target: PI3K regulatory subunit p85 (human (endogenous in HEC-1-A)); assay: as above

binding (SEMA7A): binds
Molecule: PI3K regulatory subunit p85 (human (endogenous in HEC-1-A))

binding [1]: binds
B1: SEMA7A (protein, UniProt O75326 45-648)
chain: T1 sequence
